PubChem BioAssay AID1259405 | NCATS – 2018
This is a random part of about 50,000 reagents. Over the whole deposit, about 4,000 (8%) got an active call. 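Mouse siRNA library applied to hamster cells; one well for each siRNA.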 The numbers tell different reagents against one gene apart. No sequences are given here.

- Purpose: 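Silenced genes that increase secreted GFP made by CHO cells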 (primary screen)
- Cell system: Chinese hamster CHO-K1 ovary cells with stable secreted eGFP expression
- Reagents: single siRNA against mouse genes, 0.8 pmol siRNA per well (2 µl of 400 nM stock)
- Timing: 3 days
- Read-out: 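Percent of the per-plate non-targeting control median for intracellular GFP per well by laser scanning cytometry and for cell viability by ATP luminescence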
- Direction: GFP, % of control: higher = more GFP per well, higher productivity; viability (ATP), % of control: higher = more viable cells (more ATP)
- Hit rule: 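Called active when intracellular GFP, relative to negative control, is at or above 120%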

gene	reagent	GFP, % of control	viability (ATP), % of control	Call
Sash3	1	114	122	inactive
Sash3	2	47.7	104	inactive
Sash3	3	66.5	33.9	inactive
Apool	1	73.5	90.3	inactive
Apool	2	58.3	26.9	inactive
Apool	3	77	101	inactive
Fads2	1	110	135	inactive
Fads2	2	83.9	68.7	inactive
Gemin6	1	65.3	49.3	inactive
Gemin6	2	93	61	inactive
Gemin6	3	84	80.2	inactive
Timp1	1	76.1	93.8	inactive
Timp1	2	79.7	65.1	inactive
Timp1	3	206	71.6	active
Rtl5	1	81.9	74.9	inactive
Rtl5	2	116	113	inactive
Rtl5	3	85.5	107	inactive
Kcnj15	1	128	56.4	active
Kcnj15	2	68.7	40.3	inactive
Kcnj15	3	91.5	79.8	inactive
Lrrc4	1	96.4	73.9	inactive
Lrrc4	2	72.1	57.1	inactive
Lrrc4	3	111	83.5	inactive
Nt5c3b	1	90.5	119	inactive
Nt5c3b	2	99.8	63.7	inactive
Nt5c3b	3	70.2	97.1	inactive
Myod1	1	98.5	117	inactive
Myod1	2	93.3	84.2	inactive
Myod1	3	116	126	inactive
Atg5	1	72.7	101	inactive
Atg5	2	57.8	79.2	inactive
Atg5	3	62.4	71.5	inactive
Rhog	1	153	59.5	active
Rhog	2	80.1	67.4	inactive
Rhog	3	76.8	54.8	inactive
Nrip2	1	52.2	59	inactive
Nrip2	2	50.2	29.6	inactive
Nrip2	3	98.5	55.6	inactive
Soat1	1	79	68.5	inactive
Soat1	2	89.9	81.6	inactive
Soat1	3	89.5	111	inactive
Rad18	1	42	31.1	inactive
Rad18	2	114	90	inactive
Rad18	3	89.6	98	inactive
Mal	1	55.6	70.1	inactive
Mal	2	82.6	59.8	inactive
Mal	3	30.7	72.8	inactive
Fam168a	1	69	64.8	inactive
Fam168a	2	77.8	75.3	inactive
Fam168a	3	103	76.8	inactive
Atp1b2	1	93	79.7	inactive
Atp1b2	2	39.5	49.9	inactive
Atp1b2	3	98.2	78.4	inactive
Rnf32	1	96	72.7	inactive
Rnf32	2	66.3	49.4	inactive
Rnf32	3	79	72.1	inactive
Hnrnph2	1	77.9	59.7	inactive
Hnrnph2	2	95.6	54.6	inactive
Hnrnph2	3	111	97.6	inactive

Quoted from above for reference:
gene	reagent	GFP, % of control	viability (ATP), % of control	Call
Rhog	3	76.8	54.8	inactive
Nrip2	1	52.2	59	inactive
Nrip2	2	50.2	29.6	inactive
Nrip2	3	98.5	55.6	inactive
Soat1	1	79	68.5	inactive
Soat1	2	89.9	81.6	inactive
Soat1	3	89.5	111	inactive
